At least one structure is not confirmed: it was looked up by name or label, or the drawing left a doubt.
Tested on: I59S zERG
Assay: I59S zERG trafficking in transfected HEK cells (Western blot, immunofluorescence)
Conditions: HEK cells transfected with I59S zERG, 100 μM, 24 hours

CC1(C)O[C@@H]2C[C@H]3[C@@H]4C[C@H](F)C5=CC(=O)CC[C@]5(C)[C@H]4[C@@H](O)C[C@]3(C)[C@]2(C(=O)CO)O1 [flurandrenolide]
percentage of the mature glycoform on Western blot: did not appreciably change
surface expression / membrane localization of I59S zERG by immunofluorescence: does not alter surface expression
